Record: PubChem BioAssay AID1259424 (University of Nebraska Medical Center, 2018)
Purpose: 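Find knockdowns that reproduce the expression shifts seen after KSR1 loss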 (primary screen). System: human HCT116 colon cancer cells. Reagents: siRNA pool against human genes, 50 nM. Detection: 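Log2 levels of six mRNAs (branched-DNA multiplex), adjusted by two reference genes and the non-targeting median, then scored against the average KSR1 knockdown pattern as Pearson r and euclidean distance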. Reading the numbers: mean correlation with KSR1 profile: higher = expression change more like KSR1 knockdown.
This is one part, drawn at random, of about 14,000 reagents tested. 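Higher correlation or smaller distance means closer resemblance to KSR1 loss; control wells, including KSR1 knockdowns, recur on many plates.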 The numbers tell different reagents against one gene apart. Further read-outs or replicates are left out here. The record does not give: the time to read-out.

{"Gene": "ZNF124", "pool no.": 1, "mean correlation with KSR1 profile": 0.701}
{"Gene": "CLIC3", "pool no.": 1, "mean correlation with KSR1 profile": -0.205}
{"Gene": "NID2", "pool no.": 1, "mean correlation with KSR1 profile": 0.195}
{"Gene": "PLAT", "pool no.": 1, "mean correlation with KSR1 profile": 0.47}
{"Gene": "PTRH2", "pool no.": 1, "mean correlation with KSR1 profile": 0.113}
{"Gene": "GDF9", "pool no.": 1, "mean correlation with KSR1 profile": 0.149}
{"Gene": "C8B", "pool no.": 1, "mean correlation with KSR1 profile": 0.0265}
{"Gene": "AKT1", "pool no.": 1, "mean correlation with KSR1 profile": 0.0398}
{"Gene": "AKT1", "pool no.": 2, "mean correlation with KSR1 profile": 0.307}
{"Gene": "ARFRP1", "pool no.": 1, "mean correlation with KSR1 profile": -0.407}
{"Gene": "TRPM6", "pool no.": 1, "mean correlation with KSR1 profile": 0.586}
{"Gene": "CPLX2", "pool no.": 1, "mean correlation with KSR1 profile": -0.442}
{"Gene": "CPLX2", "pool no.": 2, "mean correlation with KSR1 profile": -0.45}
{"Gene": "DYNLRB2", "pool no.": 1, "mean correlation with KSR1 profile": 0.318}
{"Gene": "KDM4A", "pool no.": 1, "mean correlation with KSR1 profile": -0.417}
{"Gene": "ABCC12", "pool no.": 1, "mean correlation with KSR1 profile": 0.151}
{"Gene": "ZNF552", "pool no.": 1, "mean correlation with KSR1 profile": 0.282}
{"Gene": "RB1CC1", "pool no.": 1, "mean correlation with KSR1 profile": -0.433}
{"Gene": "SPIN1", "pool no.": 1, "mean correlation with KSR1 profile": 0.507}
{"Gene": "NHERF4", "pool no.": 1, "mean correlation with KSR1 profile": 0.369}
{"Gene": "RETREG1", "pool no.": 1, "mean correlation with KSR1 profile": 0.747}
{"Gene": "OPN4", "pool no.": 1, "mean correlation with KSR1 profile": 0.111}
{"Gene": "BCAT2", "pool no.": 1, "mean correlation with KSR1 profile": 0.225}
{"Gene": "RAB6B", "pool no.": 1, "mean correlation with KSR1 profile": -0.806}
{"Gene": "CEACAM4", "pool no.": 1, "mean correlation with KSR1 profile": -0.405}
{"Gene": "PTTG1IP", "pool no.": 1, "mean correlation with KSR1 profile": -0.108}
{"Gene": "UPB1", "pool no.": 1, "mean correlation with KSR1 profile": -0.00499}
{"Gene": "DFFA", "pool no.": 1, "mean correlation with KSR1 profile": -0.336}

2 entries from above, sorted by “mean correlation with KSR1 profile”, high to low.
{"Gene": "PLAT", "pool no.": 1, "mean correlation with KSR1 profile": 0.47}
{"Gene": "NID2", "pool no.": 1, "mean correlation with KSR1 profile": 0.195}
